# Assay results published in PubChem BioAssay (NCATS).
# The shares of active, inactive and inconclusive entries below differ from those in the screen. A call without a number means that no potency is given here. For some of these results: Potencies of inconclusive entries are doubtful fits and often do not repeat. Calls of active or inactive are those of the source. Calls follow the shape of the dose curve; as a rule, active = well fitted curve in the direction sought with a large enough effect; inconclusive = small, poorly fitted or top-dose-only effect, or another doubt; inactive = no such curve, though single readings can be large; an effect the other way counts as inactive or inconclusive.
# What was measured:
# [1] = Quantitative High-Throughput drug screen in 47 multiple myeloma cell lines against the NCATS MIPE library collection: JJN3_DSMZ cell viability assay (AID 1918966; also: nearly all actives have a fitted effect of over 50% in size); conditions: JJN3 myeloma cells viability, CellTiter-Glo ATP, 48 h; series mostly up to 45.8 µM
# Procedure, shortened: (§1)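 qHTS of the MIPE 4.0 collection: 500 myeloma cells/well, 48 h drug exposure at 37C in 5% CO2, then CellTiter-Glo for 5 min at room temperature before luminescence reading.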
# [2] = Quantitative High-Throughput drug screen in 47 multiple myeloma cell lines against the NCATS MIPE library collection: H1112_PLB cell viability assay (AID 1918967; also: nearly all actives have a fitted effect of over 30% in size)
# Procedure, shortened: as §1
# [3] = Quantitative High-Throughput drug screen in 47 multiple myeloma cell lines against the NCATS MIPE library collection: Karpas25_ECACC cell viability assay (AID 1918968; also: nearly all actives have a fitted effect of over 35% in size)
# Procedure, shortened: as §1
# [4] = Quantitative High-Throughput drug screen in 47 multiple myeloma cell lines against the NCATS MIPE library collection: KMS12BM_JCRB cell viability assay (AID 1918971); also: nearly all actives have a fitted effect of over 35% in size
# Procedure, shortened: (§2)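 We plated 500 myeloma cells per well, pinned in MIPE 4.0 compounds, and incubated for 48 hours at 37C. ATP was then quantified with CellTiter-Glo, with DMSO and media-only wells defining 100% and 0%.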
# [5] = Quantitative High-Throughput drug screen in 47 multiple myeloma cell lines against the NCATS MIPE library collection: KMS20_JCRB cell viability assay (AID 1918973); conditions: CellTiter-Glo ATP, 48 h; viability (% of DMSO): at 45.8 µM (top of the series); also: nearly all actives have a fitted effect of over 45% in size
# Procedure, shortened: as §1
# [6] = Quantitative High-Throughput drug screen in 47 multiple myeloma cell lines against the NCATS MIPE library collection: KMS21BM_JCRB cell viability assay (AID 1918974); also: potency is read from the fitted curve at half-maximal effect
# Procedure, shortened: as §1
# [7] = Quantitative High-Throughput drug screen in 47 multiple myeloma cell lines against the NCATS MIPE library collection: KMS26_JCRB cell viability assay (AID 1918975); conditions: KMS26 myeloma cells viability, CellTiter-Glo ATP, 48 h; viability (% of DMSO): at 45.8 µM (top of the series); also: potency is read from the fitted curve at half-maximal effect; nearly all actives have a fitted effect of over 45% in size
# Procedure, shortened: as §2
# [8] = Quantitative High-Throughput drug screen in 47 multiple myeloma cell lines against the NCATS MIPE library collection: MOLP8_DSMZ cell viability assay (AID 1918977); conditions: MOLP8 myeloma viability, CellTiter-Glo ATP luminescence, 48 h; viability (% of control): at 45.8 µM (top of the series); also: nearly all actives have a fitted effect of over 45% in size
# Procedure, shortened: (§3)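 qHTS format: cells plated (500/well), pin-dosed with MIPE 4.0 compounds, kept 48 h at 37 °C. Readout was CellTiter-Glo luminescence, median RLU.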
# [9] = Quantitative High-Throughput drug screen in 47 multiple myeloma cell lines against the NCATS MIPE library collection: OCIMY1_PLB cell viability assay (AID 1918979); also: nearly all actives have a fitted effect of over 35% in size
# Procedure, shortened: as §3
# [10] = Quantitative High-Throughput drug screen in 47 multiple myeloma cell lines against the NCATS MIPE library collection: MM1S_ATCC cell viability assay (AID 1918980); also: potency is read from the fitted curve at half-maximal effect; nearly all actives have a fitted effect of over 45% in size
# Procedure, shortened: as §3
# [11] = Quantitative High-Throughput drug screen in 47 multiple myeloma cell lines against the NCATS MIPE library collection: MM1R_ATCC cell viability assay (AID 1918981); also: nearly all actives have a fitted effect of over 35% in size
# Procedure, shortened: as §3
# [12] = Quantitative High-Throughput drug screen in 47 multiple myeloma cell lines against the NCATS MIPE library collection: LP1_DSMZ cell viability assay (AID 1918982); also: nearly all actives have a fitted effect of over 35% in size
# Procedure, shortened: as §3
# [13] = Quantitative High-Throughput drug screen in 47 multiple myeloma cell lines against the NCATS MIPE library collection: L363_DSMZ cell viability assay (AID 1918984); conditions: L363 myeloma viability, CellTiter-Glo ATP luminescence, 48 h; viability (% of control): at 45.8 µM (top of the series); also: nearly all actives have a fitted effect of over 40% in size
# Procedure, shortened: as §3
# [14] = Quantitative High-Throughput drug screen in 47 multiple myeloma cell lines against the NCATS MIPE library collection: KMS34_JCRB cell viability assay (AID 1918985); also: potency is read from the fitted curve at half-maximal effect; nearly all actives have a fitted effect of over 40% in size
# Procedure, shortened: as §3
# [15] = Quantitative High-Throughput drug screen in 47 multiple myeloma cell lines against the NCATS MIPE library collection: OCIMY5_PLB cell viability assay (AID 1918988); also: potency is read from the fitted curve at half-maximal effect; nearly all actives have a fitted effect of over 65% in size
# Procedure, shortened: as §3
# [16] = Quantitative High-Throughput drug screen in 47 multiple myeloma cell lines against the NCATS MIPE library collection: XG1_PLB cell viability assay (AID 1919866)
# Procedure, shortened: as §3
# [17] = Quantitative High-Throughput drug screen in 47 multiple myeloma cell lines against the NCATS MIPE library collection: UTMC2_PLB cell viability assay (AID 1919868); conditions: CellTiter-Glo ATP luminescence, 48 h; series mostly up to 45.8 µM; also: nearly all actives have a fitted effect of over 55% in size
# Procedure, shortened: as §3
# [18] = Quantitative High-Throughput drug screen in 47 multiple myeloma cell lines against the NCATS MIPE library collection: PE2_PLB cell viability assay (AID 1919869); also: nearly all actives have a fitted effect of over 35% in size
# Procedure, shortened: as §3
# [19] = tested on: PA-1; assay: Primary qHTS to identify gynecologic anti-cancer compounds using libraries of approved drugs and bioactive compounds (AID 1345084); conditions: Gynecologic cancer cell panel viability, ATPlite luminescence, 48 h; series mostly up to 57.5 µM; also: nearly all actives have a fitted effect of over 55% in size
# Procedure, shortened: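 Measured: luminescence after ATPlite addition (15 min, RT). Exposure: 48 h, 37 C, 5% CO2.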
# [20] = Drug repurposing screens with cells derived from glioblastoma tumor samples (AID 1345199); conditions: GBM patient neurospheres viability, ATP luminescence, 48 h; Potency: tumour line A unless noted; series mostly up to 46 µM; also: nearly all actives have a fitted effect of over 40% in size
# Procedure, shortened: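 Primary testing used CD133+ neurospheres from four GBM patients, seven concentrations, 48 h exposure and ATP-based viability; confirmation added three slower-growing patient lines.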
# [21] = tested on: C2A; assay: qHTS profiling for inhibitors of Plasmodium falciparum proliferation (AID 504749); also: nearly all actives have a fitted effect of over 60% in size; also: potency is read from the fitted curve at half-maximal effect; conditions: P. falciparum in erythrocytes, SYBR Green DNA, 72 h; series mostly up to 28.7 µM
# Procedure, shortened: (§4)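 Quantitative HTS: compounds pinned into medium, infected erythrocytes added (0.3% parasitemia, 2.5% hematocrit), 72 h culture at 37 C under 5% CO2. Saponin/Triton lysis with SYBR Green I, overnight RT, then fluorescence read.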
# [22] = tested on: CP203; assay: as above; conditions: P. falciparum in erythrocytes, SYBR Green DNA, 72 h; series mostly up to 28.7 µM
# Procedure, shortened: as §4
# [23] = tested on: CP215; assay: as above; conditions: P. falciparum in erythrocytes, SYBR Green DNA, 72 h; series mostly up to 28.7 µM
# Procedure, shortened: as §4
# [24] = tested on: CP237; assay: as above; conditions: P. falciparum in erythrocytes, SYBR Green DNA, 72 h; series mostly up to 28.7 µM
# Procedure, shortened: as §4
# [25] = tested on: DIV17; assay: as above; conditions: P. falciparum in erythrocytes, SYBR Green DNA, 72 h; series mostly up to 28.7 µM
# Procedure, shortened: as §4
smiles,measurement,setting,value
Nc1[nH]c(=O)ncc1F,Potency,[1],inactive
same,Potency,[2],inactive
same,Potency,[3],inactive
same,Potency,[4],inactive
same,Potency,[5],inactive
same,Potency,[6],"inconclusive: 118 nM [cytotoxic, full curve, poor fit]"
same,Potency,[7],"inconclusive: 235 nM [cytotoxic, full curve, poor fit]"
same,Potency,[8],inactive
same,Potency,[9],inactive
same,Potency,[10],"inconclusive: 16.6 µM [cytotoxic, partial curve, poor fit]"
same,Potency,[11],inactive
same,Potency,[12],inactive
same,Potency,[13],inactive
same,Potency,[14],"inconclusive: 9.35 µM [cytotoxic, partial curve, poor fit]"
same,Potency,[15],"inconclusive: 23.5 µM [cytotoxic, partial curve, poor fit]"
same,Potency,[16],"inconclusive: 29.6 µM [cytotoxic, single point]"
same,Potency,[17],inactive
same,Potency,[18],inactive
same,Potency,[19],inactive
same,Potency,[20],inactive
same,Potency,[21],"inconclusive: 10 µM [inhibitor, single point]"
same,Potency,[22],inactive
same,Potency,[23],inactive
same,Potency,[24],inactive
same,Potency,[25],inactive

# Some of the entries so far, bar-delimited:
smiles | measurement | setting | value
Nc1[nH]c(=O)ncc1F | Potency | [4] | inactive
same | Potency | [5] | inactive
